# Measured data: PubChem BioAssay AID686937 (Drosophila RNAi Screening Center, 2013)
# Assay: 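Genes whose loss weakens secretory pathway function in fly cells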 (primary screen)
# Cells: Drosophila S2 cells expressing secreted horseradish peroxidase
# Reagent: long dsRNA against Drosophila genes
# Timing: about 5.5 days (5 days dsRNA, then 12 h reporter induction)
# Challenge: reporter expression induced after 5 days of dsRNA, read 12 h later; inducer not stated
# Detection: 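Chemiluminescent measurement of peroxidase in the medium 12 h after reporter induction, following 5 days of dsRNA, given as a z-score per plate; higher means more secretion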
# Scale: z-score: higher = more reporter secreted into medium
# The screen tested about 23,000 reagents; this is a random part of those that have a named target and a result. 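Reduced-secretion tags in replicate 1 do not always agree with the z-scores; no criterion for assigning the tags was given.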 Names joined by + are all predicted targets of the reagent. Not stated in the record: the amount of reagent.
gene knocked down,DRSC id,"z-score, replicate 1","z-score, replicate 2","z-score, replicate 3","z-score, replicate 4","phenotype, replicate 1"
aqz,DRSC16570,-1.86,-1.77,,,reduced secretion
BicC,DRSC02005,0.64,0.33,,,
Gpo1,DRSC07128,0.37,0.08,,,
jing,DRSC04923,0.22,0.19,,,
jing,DRSC04927,0.19,,,,
jing,DRSC05000,0.33,0.41,,,
RpS5b,DRSC16173,0.16,-1.16,,,
tim,DRSC00841,0.27,0.44,,,
CR10102,DRSC05963,0.04,-0.01,,,
CG33775,DRSC05353,-0.89,0.23,,,
CG31550,DRSC12197,0.15,0.44,,,
CG31550,DRSC12198,0.51,0.39,,,
Klp64D,DRSC11204,0.37,0.35,,,
CG34051,DRSC01739,0.26,-0.23,0.36,0.08,
beta-PheRS,DRSC15859,-0.21,-0.71,,,
Art3,DRSC16065,0.34,0.41,,,
CG14625,DRSC18633,0.37,0.35,,,
CG13928,DRSC08397,0.53,0.41,,,
CG3817,DRSC15515,0.44,0.12,,,
CG14495,DRSC06466,-4.1,-0.22,,,reduced secretion
Mpc1,DRSC14770,0.39,0.47,,,
Pglym87,DRSC15252,0.44,0.54,,,
CR11386 + CR33222,DRSC17781,0.08,-0.06,,,
CG14015,DRSC02346,0.36,0.32,,,
PCID2,DRSC10822,-0.5,-1.47,,,
NimC4,DRSC01945,0.11,-0.3,,,
CG34149,DRSC14537,0.29,0.26,,,
Tmtc4,DRSC15702,0.12,0,,,

In a second layout: results already given
{"gene knocked down": "PCID2", "DRSC id": "DRSC10822", "z-score, replicate 1": -0.5, "z-score, replicate 2": -1.47}
{"gene knocked down": "NimC4", "DRSC id": "DRSC01945", "z-score, replicate 1": 0.11, "z-score, replicate 2": -0.3}
{"gene knocked down": "CG34149", "DRSC id": "DRSC14537", "z-score, replicate 1": 0.29, "z-score, replicate 2": 0.26}

The listing continues:
gene knocked down,DRSC id,"z-score, replicate 1","z-score, replicate 2","z-score, replicate 3","z-score, replicate 4","phenotype, replicate 1"
RpL23,DRSC04648,-6.25,-4.48,,,reduced secretion
Cdk1,DRSC03504,-2.48,-1.88,,,reduced secretion
CG5080,DRSC00677,0.06,0.38,,,
CG32459,DRSC11852,0.29,0.33,,,
mEFTu1,DRSC06959,-0.05,-0.14,,,
CG14280,DRSC14761,0.21,0.22,,,
Naglu,DRSC02267,0.21,0.23,,,
Dpp10,DRSC00942,-0.79,0.05,,,
Dpp10,DRSC02139,-0.15,0.17,,,
CG32447,DRSC11732,0.32,0.25,,,
CG32447,DRSC11805,-0.49,-0.47,,,
Srp54,DRSC03442,-1.37,-0.35,,,
Ugt36A1 + CG15418,DRSC00432,0.14,0.5,,,
Psf1,DRSC08638,0.3,0.51,0.62,0.33,
CG11811,DRSC09862,0.06,0.43,,,
Cpr49Ac,DRSC07199,0.25,0.38,,,
CG11309,DRSC11650,0.16,0.26,,,
tey,DRSC11042,-3,0.34,-1.97,0.56,
tey,DRSC21709,1.44,2.93,,,
Megf8,DRSC03058,0.24,0.53,,,
Osi14,DRSC12368,0.4,-0.1,,,
Eip93F,DRSC13527,0.46,0.67,,,
Eip93F,DRSC16661,-0.24,0.31,,,
Eip93F,DRSC21754,-0.55,0.22,,,
CG13344,DRSC06378,0.33,0.32,,,
S-Lap2,DRSC10628,0.34,0.23,,,
mop,DRSC11065,0.21,0.26,,,
CG42240,DRSC18097,-0.87,-0.06,0.12,-1.08,reduced secretion
